Our source for the binding values is patent US20130336977A1.

Chains of the proteins cited; added tags and fusions are not shown. Residues count along the entry.
UniProt P10747, residues 19-220: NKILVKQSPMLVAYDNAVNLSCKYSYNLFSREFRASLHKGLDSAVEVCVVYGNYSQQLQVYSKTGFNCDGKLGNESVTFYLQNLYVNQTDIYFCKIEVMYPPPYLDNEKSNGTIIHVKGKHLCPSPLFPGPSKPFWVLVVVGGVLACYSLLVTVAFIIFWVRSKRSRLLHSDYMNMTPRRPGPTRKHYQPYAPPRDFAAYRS

The target in this experiment is CD28 (UniProt P10747). As to the kind of experiment: flow cytometry on CD28 CHO cells, protein A purified protein at 5 µg/ml.

These are yes or no findings as the source states them, for the method shown. Some entries that bind do so weakly or less than the wild type.

B1: 2e12 VHVL SMIP (Fc fusion, not shown: a dimerising Fc or GST)
chain: VQVQLKESGPGLVAPSQSLSITCTVSGFSLTGYGVNWVRQPPGKGLEWLGMIWGDGSTDYNSALKSRLSITKDNSKSQVFLKMNSLQTDDTARYYCARDGYSNFHYYVMDYWGQGTSVTVSSGGGGSGGGGSGGGGSGGGGSDIVLTQSPASLAVSLGQRATISCRASESVEYYVTSLMQWYQQKPGQPPKLLISAASNVESGVPARFSGSGSGTDFSLNIHPVEEDDIAMYFCQQSRKVPWTFGGGTKLEIKR
In the case of B1, the binding entry is “binds”.
